Source: PubChem BioAssay AID493014 (National Center for Advancing Translational Sciences (NCATS), 2011)
The list shows a part of the results. These are further read-outs of the screen, such as a control signal, another cell line or another target. No call is given for them. Compounds called inactive in the main read-out are mostly missing here. Potencies come from curve fits of mixed quality, noted in brackets.

Experiment: qHTS Assay to Find Inhibitors of Chronic Active B-Cell Receptor Signaling
Conditions: ABC-DLBCL IkBa-CBG/CBR reporter, luminescence ratio (green luciferase fused to IkBa over red control in TMD8 lymphoma cells), 4 h
Outline: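 Concentration-response series (up to 46 uM) were applied to TMD8 dual-reporter cells for 4 h at 37C with doxycycline. Green/red ratio, after filter-overlap correction, defined %Activity; red signal alone was normalised to basal cells and zero luminescence.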

[1] = measured here: CBR red luminescence, cell number
[2] = measured here: IkBa-CBG green luminescence

| Structure (SMILES) | AC50 [1] | AC50 [2] |
| --- | --- | --- |
| CSC1=NC(C(Cl)(Cl)Cl)N=C(c2ccc(C)cc2)N1 (centres undefined) | 4.47 µM [rising, single point] | 3.16 µM [falling, single point] |
| CC(C)(C)CC(C)(C)NCC(=O)Nc1c2c(nc3ccccc13)CCC2 | 11.2 µM [falling, single point] | – |
| COc1ccc(CCNC(=O)c2cc(-c3ccc(C)c(C)c3O)n[nH]2)cc1OC | 16.4 µM [rising, partial curve, poor fit] | – |
| CCCNCCC(c1ccco1)c1ccccc1OC (centres undefined) | 0.562 µM [rising, partial curve, poor fit] | – |
| CCOC(=O)c1sc2nc3n(c(=O)c2c1C)CCC3 | 2.31 µM [rising, full curve, poor fit] | – |
| COc1cc([N+](=O)[O-])ccc1NC(=O)N1CCCCCC1 | 35.5 µM [falling, single point] | – |
| COc1ccc(Cl)cc1Nc1nc(N)nc(C(F)(F)F)n1 | 11.2 µM [rising, partial curve] | – |
| Cc1ccnc(Nc2nc(-c3ccc(F)cc3)cs2)c1 | 12.6 µM [falling, partial curve, poor fit] | – |
| COc1cc2ncnc(NCc3cccc(Cl)c3)c2cc1OC | 35.5 µM [falling, single point] | – |
| COC(=O)c1sc2ccccc2c1-n1cccc1C(=O)C(=O)Nc1ccc(Cl)cc1 | 12.6 µM [falling, partial curve, poor fit] | – |
| Cc1cc(C)n(C(=O)CN2C(=O)CCC2=O)n1 | 2.59 µM [rising, partial curve] | – |
| CCCCn1c2ccc(C)cc2c2nnc(SCCN3CCCCC3)nc21 | 3.55 µM [falling, single point] | – |
| COc1ccc([N+](=O)[O-])cc1N(CC(O)CN(CC(C)C)CC(C)C)S(=O)(=O)c1ccc(C)cc1 (centres undefined) | 35.5 µM [falling, single point] | – |
| CC(OC(=O)c1cccc(S(=O)(=O)Nc2cccc(C(F)(F)F)c2)c1)C(=O)Nc1ccc2c(c1)OCCO2 (centres undefined) | 25.9 µM [falling, single point] | 23.1 µM [rising, single point] |
| COc1ccccc1OCC#CCSc1ncccn1 | 11.2 µM [falling, partial curve, poor fit] | – |
| Cc1nccn1-c1ccc(C(F)(F)F)cc1[N+](=O)[O-] | 35.5 µM [rising, single point] | – |
| CCCCNC(=O)c1cccc(NC(=O)C(=O)c2ccccc2NC(C)=O)c1 | 20.6 µM [rising, single point] | – |
| O=C(COC(=O)CNC(=O)c1ccc(Br)o1)Nc1ccccc1OC(F)F | 20 µM [rising, partial curve, poor fit] | – |
| CN(C)CCCNC(NC(=O)c1cccs1)C(Cl)(Cl)Cl (centres undefined) | 20.6 µM [falling, single point] | – |
| CCOc1ccccc1N=NC1C(=O)N(C(N)=S)N=C1C (centres undefined) | 5.01 µM [rising, partial curve, poor fit] | 2.51 µM [falling, partial curve, poor fit] |
| CC(=O)Nc1ccc(N2CCN(c3ccc(F)cc3)CC2)cc1 | 15.8 µM [rising, partial curve, poor fit] | – |

Complete entries, looked up by structure.
`Cc1nccn1-c1ccc(C(F)(F)F)cc1[N+](=O)[O-]` reads AC50 [1]: 35.5 µM [rising, single point]
`COc1cc2ncnc(NCc3cccc(Cl)c3)c2cc1OC` reads AC50 [1]: 35.5 µM [falling, single point]
`COc1cc([N+](=O)[O-])ccc1NC(=O)N1CCCCCC1` reads AC50 [1]: 35.5 µM [falling, single point]

The list continues.

| Structure (SMILES) | AC50 [1] | AC50 [2] |
| --- | --- | --- |
| COc1ccccc1NC(=O)CSCC(=O)N1c2ccccc2CCc2ccccc21 | 29.1 µM [falling, single point] | – |
| NNc1nc2ccc(F)cc2s1 | 16.4 µM [falling, partial curve, poor fit] | – |
| CN(c1cccc(NC(=O)CN(c2cccc(Cl)c2)S(=O)(=O)c2ccc(Cl)cc2)c1)S(C)(=O)=O | 2.59 µM [falling, full curve] | – |
| CC(=O)Nc1cccc(OCC(=O)Nc2sccc2C(N)=O)c1 | 3.55 µM [rising, single point] | – |
| COc1ccc(-c2cc(C(F)(F)F)nc(S(=O)(=O)CCCC(=O)Nc3cc(C)on3)n2)cc1OC | 11.2 µM [falling, partial curve, poor fit] | – |
| Cc1cc(C(C)(C)C)oc1C(=O)N(CC(=O)NC1CCCC1)Cc1ccccc1Cl | 18.4 µM [falling, single point] | – |
| COc1ccc2nc(NC(=O)Cc3cccs3)sc2c1 | 25.9 µM [falling, single point] | – |
| O=C(COc1ccc(Br)cc1CO)Nc1ccccc1F | 12.6 µM [falling, partial curve] | – |
| Cc1cc(C(=O)NNC2CC(=O)N(c3ccc4ccccc4c3)C2=O)c(C)o1 (centres undefined) | 7.08 µM [falling, full curve, poor fit] | – |
| COc1ccc(Oc2nnc(C)c3ccccc23)cc1 | 29.1 µM [rising, single point] | – |
| CN(C(=O)n1cnc2ccccc21)c1ccccc1 | 0.651 µM [rising, full curve, poor fit] | – |
| O=C1/C(=C\c2cccnc2)Sc2ccccc21 | 1.3 µM [falling, partial curve, poor fit] | – |
| COC(=O)CSc1nc(N)c2c3c(sc2n1)CCCC3 | 20 µM [falling, partial curve, poor fit] | – |
| CC1(C)C(c2ccc(Cl)cc2)=[N+]([O-])C2(CCCC/C2=N\O)N1O (centres undefined) | 8.91 µM [falling, partial curve, poor fit] | – |
| O=C(Cn1cc(/C=C\[N+](=O)[O-])c2ccccc21)Nc1ccccc1 | 35.5 µM [rising, single point] | 20 µM [falling, partial curve] |
| COCCCn1c(=O)c2sccc2n(Cc2cc(C(=O)OC)ccc2OC)c1=O | 35.5 µM [falling, single point] | – |
| Cc1ccc(OCc2ccc(C(=O)NN)o2)c([N+](=O)[O-])c1 | 7.94 µM [falling, partial curve] | – |
| Cc1ccc(-n2c(N)c(C(=O)N3CCOCC3)sc2=S)cc1 | 25.9 µM [falling, partial curve, poor fit] | – |
| COc1ccc(NC(=S)N2CCC(c3ccc(C)cc3)C2)cc1 (centres undefined) | 8.91 µM [rising, partial curve, poor fit] | – |
| CC(=O)N1N=C(c2ccccc2)CC1c1cn(C)c2ccccc12 (centres undefined) | 8.2 µM [falling, partial curve] | – |
| Cc1ccc(NC(=S)NNC(=S)Nc2ccc(C)cc2C)cc1 | – | 12.6 µM [falling, partial curve] |

| Structure (SMILES) | AC50 [1] | AC50 [2] |
| --- | --- | --- |
| CCC(CC)NC(=O)CO/N=C/c1ccccc1OC(F)F | 1.3 µM [rising, full curve, poor fit] | – |
| CC(C)NC(=O)c1cc(C(=O)c2cc(Cl)ccc2O)coc1=N | 12.6 µM [falling, single point] | – |
| COc1ccc(NC(=O)CC2C(=O)N(CCc3ccccc3)C(=S)N2Cc2cccnc2)cc1 (centres undefined) | 12.6 µM [falling, single point] | – |
| CC(C)(C)c1ccc(CN2C(=O)c3ccccc3S2(=O)=O)cc1 | 6.31 µM [rising, full curve, poor fit] | – |
| O=C(CC1C(=O)NCCN1C(=O)Nc1ccccc1)Nc1cc(Cl)ccc1Cl (centres undefined) | 20 µM [rising, partial curve, poor fit] | – |
| COc1ccc(NS(=O)(=O)c2cccc(Cl)c2)cc1S(=O)(=O)N1CCCCC1 | 1.46 µM [falling, full curve] | – |
| CC(=O)Oc1ccc(/C=C/c2nc3ccccc3c(=O)o2)cc1 | 2.51 µM [falling, partial curve] | – |
| CCOC(=O)c1[nH]c(C)c(C(=O)Nc2cc(Cl)ccc2C)c1C | 11.6 µM [rising, partial curve] | 16.4 µM [falling, partial curve] |
| N#Cc1cc(N2CCOCC2)nc2ccccc12 | 7.94 µM [rising, partial curve, poor fit] | – |
| Cc1c(C(=O)N/N=C/c2ccccn2)nnn1-c1nonc1N | 0.447 µM [falling, full curve, poor fit] | – |
| O=C(Cn1ncc(Cl)c(Cl)c1=O)NC(=O)NC1CCCCC1 | 3.66 µM [falling, full curve] | 7.31 µM [rising, partial curve, poor fit] |
| CC(/C=N/n1c(-c2ccc(Cl)cc2)n[nH]c1=S)=C\c1ccco1 | 20.6 µM [rising, partial curve] | – |
| O=C(Nc1cccc2cccnc12)c1ccc(Cl)cc1Cl | 10 µM [rising, partial curve] | – |
| Cc1cccc(CN2CCN(Cc3cnn(-c4ccccc4F)c3)CC2CCO)n1 (centres undefined) | 0.794 µM [rising, full curve, poor fit] | – |
| CCN1C(=NCCCCO)N[C@@H](c2cccc(F)c2)C(C(=O)OC)=C1C | 0.794 µM [falling, full curve, poor fit] | – |
| O=C(Nc1ccc2c(c1)OCCO2)c1cncc(Br)c1 | 35.5 µM [falling, single point] | – |
| CC(=O)c1ccc(C(=O)N2CCCC(Nc3ccccc3)C2)s1 (centres undefined) | 10 µM [rising, partial curve, poor fit] | – |
| COc1ccc([N+](=O)[O-])cc1NC(=O)Nc1ccc(OC)c(OC)c1 | 35.5 µM [falling, single point] | – |
| COc1cccc(/C(O)=C/c2nc3ccc(C(=O)NCCc4cccc(C)c4)cc3[nH]c2=O)c1 | 20.6 µM [falling, single point] | – |
| CCOc1ccccc1NC(=O)C(=O)NCC1CCCN1CC (centres undefined) | 3.55 µM [falling, partial curve, poor fit] | – |
| C(=N\N1CCN(c2ccccn2)CC1)/c1cccc2ccccc12 | 8.91 µM [falling, partial curve, poor fit] | – |

Reprinted at random: 2 compounds from above, in no set order.

| Structure (SMILES) | AC50 [1] | AC50 [2] |
| --- | --- | --- |
| COc1cc([N+](=O)[O-])ccc1NC(=O)N1CCCCCC1 | 35.5 µM [falling, single point] | – |
| O=C(Nc1cccc2cccnc12)c1ccc(Cl)cc1Cl | 10 µM [rising, partial curve] | – |
